Our source for the binding values is paper doi:10.1101/2021.02.02.429251.

In the experiment the target is Grh1-GFP (GFP-tagged Golgi Reassembly and Stacking Protein Grh1 of S. cerevisiae) (S. cerevisiae) (UniProt Q04410). Briefly: ultracentrifugation in SDS, dot blot of the pellet.

These are yes or no findings as the source states them, for the method shown. Some results given as binding are weak or reduced against the parent protein; the word gives no strength. Where a sequence is shown, tags or fusion partners need not be part of it.

B1: Grh1-GFP (GFP-tagged Golgi Reassembly and Stacking Protein Grh1 of S. cerevisiae) (protein, UniProt Q04410 1-372)
chain: MFRIAKNLVRTFEQSVQDTLALSQDSSNLDAFFQSIPPNLLSAQLESPVDAVSEGVKHTNVNETLSGLRIVWVDEMQFQLQSFFDYIVGFNDDPVPVVSNQHGFSYPDYRRITSIFNEHCGRTLKVNIWSAKGGTFRDEYISIISKESDDLDDVSLNHDERRPSSGEAHQFQALGFKVQWTPLIASTFTYHILNVNIPDGPAQSAGLIPDEDYIIGCQDGLLATGGETLLQDIVRSRANYDLVLYVYNKVSDCVRPITVHIGPDGRLGCNVGYGFLHRIPTVKHCPQQAQQQGQDDNPVPVPVPVESETAFVPSAFTAPPVPTKKKSKNKKGTQPLAMDDYFNEGRDKSSTAAKSAESDILAPPPQKQSSSD
B1: the binding result is recorded as “binds”.
